# Source: PubChem BioAssay AID493014 (National Center for Advancing Translational Sciences (NCATS), 2011)
# The list shows a part of the results. The main result of the screen is listed elsewhere. These columns were measured beside it and carry no call. Most of these compounds were active or inconclusive in the main read-out, so they are no random draw. The note in brackets gives the kind of curve behind each potency; many fits are weak.
# Assay: qHTS Assay to Find Inhibitors of Chronic Active B-Cell Receptor Signaling
# Conditions: ABC-DLBCL IkBa-CBG/CBR reporter, luminescence ratio (green luciferase fused to IkBa over red control in TMD8 lymphoma cells), 4 h
# How it was run: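 Cell line TMD8 (human ABC DLBCL), stably expressing tet-inducible CBG68-IkBa fusion and CBR; IMDM/0.5% FBS; cpd up to 46 uM; dox induction, 4 h, 37C/5% CO2; dual luminescence; green/red ratio; MG132 control.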
# [1] = measured here: CBR red luminescence, cell number
# [2] = measured here: IkBa-CBG green luminescence
Compound,AC50 [1],AC50 [2]
CCN(CC)CCN1C(=O)c2oc3ccccc3c(=O)c2C1c1ccc(F)cc1 (configuration not stated),"25.9 µM [falling, partial curve]",–
O=C(CSc1nc2ccccc2o1)c1cc2ccccc2oc1=O,"29.1 µM [falling, single point]",–
CNc1oc(-c2ccc(OCc3ccccc3)cc2)nc1C#N,"3.16 µM [rising, full curve]",–
CCOc1ccc(N(CC(=O)NCc2ccc(C)cc2)S(=O)(=O)c2c(C)[nH]c(=O)[nH]c2=O)cc1,"3.98 µM [falling, partial curve]",–
CCN(CC)S(=O)(=O)c1ccc(OCC(=O)NC(=O)c2ccccc2OC)c([N+](=O)[O-])c1,"10 µM [rising, partial curve]",–
CCOc1cc(CNCCN2CCOCC2)ccc1OCc1ccccc1Cl,"35.5 µM [falling, single point]",–
CC(C)n1cc(CN2CCCC(C(=O)Nc3cccc(-c4cc5ccccc5[nH]4)c3)C2)cn1 (configuration not stated),"20 µM [falling, partial curve, poor fit]",–
COc1ccccc1NCC(O)Cn1c2ccccc2c2ccccc21 (configuration not stated),"29.1 µM [falling, single point]",–
O=C(/C=C/c1ccc(Br)cc1)NC(=S)NNC(=O)c1ccco1,"0.411 µM [rising, full curve]",–
Cc1ccsc1CNn1cnnc1SCc1ccc(Cl)cc1,"8.2 µM [rising, partial curve, poor fit]",–
COc1ccccc1N1CCN(S(=O)(=O)c2c(C)ccc3nsnc23)CC1,"14.6 µM [rising, partial curve, poor fit]",–
O=C(Nc1cccc(S(=O)(=O)N2CCCCCC2)c1)c1cc(=O)c2ccccc2o1,"6.31 µM [falling, full curve]",–
O=C(COC(=O)C1COc2ccccc2O1)Nc1ccc2c(c1)CCC2 (configuration not stated),"14.1 µM [rising, partial curve, poor fit]",–
CCOc1ccc(CSC(=N)N)cc1[N+](=O)[O-],"16.4 µM [falling, partial curve, poor fit]",–
Cc1ccc(C2/C(=C(/O)c3cnn(-c4ccccc4)c3C)C(=O)C(=O)N2CCCN2CCOCC2)o1 (configuration not stated),"2 µM [rising, partial curve, poor fit]",–
CCOC(=O)C1C(=O)C=C(c2ccc(C)cc2)CC1c1cccc([N+](=O)[O-])c1 (configuration not stated),–,"18.4 µM [rising, partial curve, poor fit]"
c1ccc(CSc2nc3ccccc3[nH]2)cc1,"3.98 µM [rising, full curve]",–
C=CC[C@@H](CC(=O)N[C@H](CO)Cc1ccccc1)C(=O)N[C@H](COC(=O)[C@@H](CC=C)Cc1ccc(F)cc1)C(C)(C)C,"18.4 µM [falling, single point]",–
O=C(Nc1ccc2c(c1)OCCO2)c1ccccn1,"11.2 µM [falling, partial curve]",–
COC(=O)c1ccc(Oc2nc3c(c(=O)n(C)c(=O)n3C)n2CCC(C)C)cc1,"2.31 µM [rising, full curve]",–
CCc1cccc2c(C(=O)CN3C(=O)N(C)C4(CCCCC4)C3=O)c[nH]c12,"6.51 µM [falling, single point]",–

Compound,AC50 [1],AC50 [2]
CCSC1=N/C(=C\c2ccc(C(=O)O)cc2)C(=O)S1,"14.1 µM [falling, partial curve]",–
CCOC(=O)CNC(=O)CSc1nnc(-c2c[nH]c3ccccc23)n1CC,"35.5 µM [rising, single point]",–
CCCCC(=O)Nc1ccc2oc(-c3ccncc3)nc2c1,"1.3 µM [rising, full curve, poor fit]",–
CN(C(=O)C1CCCN1S(=O)(=O)c1ccc(Cl)cc1)c1ccccc1 (configuration not stated),"5.17 µM [falling, single point]",–
O=C(Nc1ccc(Oc2ccccc2)nc1)C1CCN(Cc2cccc(F)c2)CC1,"35.5 µM [falling, single point]",–
O=S1(=O)C=C(Sc2nc3cc(Cl)ccc3o2)c2ccccc21,–,"5.62 µM [falling, full curve]"
COCC(=O)Nc1cc(OC)c(Cl)cc1OC,"0.206 µM [rising, full curve, poor fit]",–
COC(=O)c1ccc(C(=O)Nc2ccc3c(c2)C(=O)NC3=O)cc1,"0.562 µM [falling, full curve, poor fit]",–
COc1cccc(C2CC(c3cccs3)=NN2C(=O)c2ccco2)c1O (configuration not stated),"35.5 µM [falling, single point]",–
O=C(O)c1cc(-c2c[nH]c3ccccc23)nc2cc3ccccc3cc12,"7.08 µM [falling, partial curve]",–
COc1ccc(-n2c(COc3cccc(C)c3)nnc2SCC(=O)NCc2ccco2)cc1,"5.17 µM [falling, full curve, poor fit]",–
CCCCCOc1ccc(CSCCNC(=S)Nc2ccccc2)cc1,"29.1 µM [falling, single point]",–
O=C(N=Nc1c(O)[nH]c2ccccc12)c1cc(-c2cccs2)[nH]n1,"0.316 µM [falling, full curve, poor fit]",–
COc1ccc(NC(=O)CN(C)C(=O)c2ccccc2OC)cc1,"10 µM [rising, partial curve, poor fit]",–
CCCn1c(SCC(=O)Nc2cccc(C)n2)nnc1-c1ccco1,"7.94 µM [falling, partial curve, poor fit]",–
CCOc1ccc(NC(=O)C(C)SC(N)=O)cc1 (configuration not stated),"12.6 µM [falling, partial curve, poor fit]",–
O=c1[nH]c(SCc2nc3c(cnn3-c3ccccc3)c(=O)[nH]2)nc2ccccc12,"5.01 µM [falling, partial curve, poor fit]",–
O=C(/C(C=Nc1cccc(C(F)(F)F)c1)=C(/O)c1ccco1)C(F)(F)F,"2.06 µM [rising, full curve, poor fit]",–
CC(NC(=O)CN1C(=O)NC(C)(c2cccc3ccccc23)C1=O)c1ccccc1 (configuration not stated),"3.55 µM [falling, single point]",–
COc1ccccc1OCCNC(=O)Nc1cc(F)c(F)cc1Cl,"10 µM [falling, partial curve, poor fit]","11.2 µM [rising, single point]"

# Ordered by length of the SMILES (descending): some entries from above
Compound,AC50 [1],AC50 [2]
CC(NC(=O)CN1C(=O)NC(C)(c2cccc3ccccc23)C1=O)c1ccccc1 (configuration not stated),"3.55 µM [falling, single point]",–
CCCn1c(SCC(=O)Nc2cccc(C)n2)nnc1-c1ccco1,"7.94 µM [falling, partial curve, poor fit]",–
CCCCCOc1ccc(CSCCNC(=S)Nc2ccccc2)cc1,"29.1 µM [falling, single point]",–
